Measured values from PMC7385159.
These are yes or no findings as the source states them, for the method shown. Binding seen in cells or lysates may run through a third protein. Some entries that bind do so weakly or less than the wild type. For part of these data: Tags and fused reporters may be left off the sequences shown.

Chains of the proteins cited; added tags and fusions are not shown.
UniProt P37238: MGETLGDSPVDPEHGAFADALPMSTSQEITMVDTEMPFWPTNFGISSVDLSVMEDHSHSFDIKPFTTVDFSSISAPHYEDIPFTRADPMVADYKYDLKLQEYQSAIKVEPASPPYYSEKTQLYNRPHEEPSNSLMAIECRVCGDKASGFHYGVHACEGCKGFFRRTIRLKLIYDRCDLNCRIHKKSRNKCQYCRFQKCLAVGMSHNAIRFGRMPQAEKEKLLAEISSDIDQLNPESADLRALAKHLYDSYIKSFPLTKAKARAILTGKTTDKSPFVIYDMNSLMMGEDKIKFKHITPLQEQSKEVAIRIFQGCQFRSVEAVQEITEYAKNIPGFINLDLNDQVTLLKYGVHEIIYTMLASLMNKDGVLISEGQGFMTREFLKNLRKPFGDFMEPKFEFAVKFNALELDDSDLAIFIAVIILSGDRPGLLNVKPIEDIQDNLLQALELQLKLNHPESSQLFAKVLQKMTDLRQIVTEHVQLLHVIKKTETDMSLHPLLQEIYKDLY

T1: GADD45α (endogenously expressed) (mouse (endogenous in brown adipocytes)) (UniProt P48316)
T1 sequence: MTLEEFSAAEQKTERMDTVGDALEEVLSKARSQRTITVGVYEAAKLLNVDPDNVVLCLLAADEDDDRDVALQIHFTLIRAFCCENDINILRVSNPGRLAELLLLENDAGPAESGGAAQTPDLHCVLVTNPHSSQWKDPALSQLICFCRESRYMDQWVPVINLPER

T2: FLAG-GADD45α (UniProt P48316)
T2 sequence: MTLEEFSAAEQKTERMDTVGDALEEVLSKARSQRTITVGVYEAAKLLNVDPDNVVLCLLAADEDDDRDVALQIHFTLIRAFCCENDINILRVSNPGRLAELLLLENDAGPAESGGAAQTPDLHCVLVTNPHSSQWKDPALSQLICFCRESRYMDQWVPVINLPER


Tests used:
[1] = molecular target: T1, GADD45α (endogenously expressed) (mouse (endogenous in brown adipocytes)); experiment: co-IP; endogenous proteins; lysates of differentiated brown adipocytes immunoprecipitated with GADD45α or PPARγ antibodies, protein A/G agarose, 4 °C overnight, washed with cold PBS; blotted with these antibodies
FLAG-GADD45α = molecular target: T2, FLAG-GADD45α; experiment: co-IP; lysates of brown adipocytes transfected with pCDNA-FLAG-GADD45α; immunoprecipitated with FLAG and PPARγ antibodies, protein A/G agarose, 4 °C overnight, washed with cold PBS; blotted with FLAG and PPARγ antibodies
[2] = molecular target: PPARγ (mouse (endogenous in brown adipocytes)) (UniProt P37238); experiment: as above

Molecule	binding [1]	binding (FLAG-GADD45α)	binding [2]
PPARγ (from UniProt P37238 1-505)	binds	binds	
FLAG-GADD45α (protein, UniProt P48316 1-165) MTLEEFSAAEQKTERMDTVGDALEEVLSKARSQRTITVGVYEAAKLLNVDPDNVVLCLLAADEDDDRDVALQIHFTLIRAFCCENDINILRVSNPGRLAELLLLENDAGPAESGGAAQTPDLHCVLVTNPHSSQWKDPALSQLICFCRESRYMDQWVPVINLPER			binds
